Here are results for two compounds from patent US20250221936A1, “ENGINEERED HEMICHANNELS, ENGINEERED VESICLES, AND USES THEREOF” (VIRGINIA TECH INTELLECTUAL PROPERTIES, INC., priority 2018, published 2025).

Entries after “also recorded” stand apart in the source; their conditions may differ.

Series [1] concerns exosomes from HeLa Cx43GFP cells. The series is described as follows: Loading of Cx43GFP exosomes.
Series [2] relates to EVs isolated from cow milk. Nature of the series: Milk EV loading with Calcein AM. As to conditions: PBS, 37 C. Here is the method:
EVs were isolated from cow milk and loaded with neutral non-fluorescent Calcein AM (10 μM) for 48 hours at 37 C in PBS buffer at pH 8.5 (FIG. 30A). […] Purity and integrity of exosomes isolated from cow milk was confirmed by negative stain electron microscopy (EM). FIG. 30B) illustrates an exosome isolated from cow milk. Scale bar=50 nm. The methods described herein of isolation from milk were adapted to obtain high yields of EV, taking particular care not to cause rapid and/or large-scale precipitation of milk casein, as well as in centrifugation steps, which can reduce EV yields from milk.
An exemplar of these methods is shown in FIGS. 31A-31C wherein Milk EVs incubated with Calcein AM show time-(FIG. 31A), pH-(FIG. 31B) and concentration-dependent effects on uptake of Calcein by EVs. Important to this method in the case of Calcein AM, are the multiple chemical groups linked by ester bonds to the molecule, which shield it's negatively charged moieties. Cleavage of these groups by ester bond breaking activities within EVs results in Calcein becoming negatively charged, fluorescent and retained within the EV—as exemplified by the green spots seen in most figure panels in FIG. 31. In FIG. 31A EVs are illustrated that were incubated for 1, 2 or 3 hours in PBS at 37 C at pH 7.4 with Calcein AM (5 μM). […]

With `O=C(O)CN(CC(=O)O)Cc1cc2c(cc1O)Oc1cc(O)c(CN(CC(=O)O)CC(=O)O)cc1C21OC(=O)c2ccccc21` [Calcein], the “period of retention in exosomes” value in series [1] is recorded as “at least 60 minutes”.

Consider Calcein AM, for which, in series [2], the “uptake and retention of Calcein by milk EVs” value was “efficient loading and retention of dye in the EVs; also recorded: time dependent uptake; also recorded: pH dependent uptake; also recorded: concentration-dependent uptake; also recorded: increased by raising the alkalinity of the external solution to pH 8.5”.
